In this assay the target is LDB1ΔLID. Kind of assay: co-IP; Cos7 cells co-transfected with both proteins, lysed 72 h later; lysate incubated overnight at 4 °C with magnetic beads carrying HA or FLAG antibody (IgG isotype controls); lysis and wash buffer 20 mM Hepes pH 7.4, 100 mM KCl, 2 mM MgCl2, 1% Triton X-100; Western blot for MTG8. (In western blotting, separated proteins are transferred to a membrane and probed.)

No constants are given. Whether binding was seen depends on the method and setting. In cells and extracts the contact can be indirect.

B1: MTG8 (protein, UniProt Q61909 1-577)
chain: MPDRTEKHSTMPDSPVDVKTQSRLTPPAMPPPPTTQGAPRTSSFTPTTLTNGTSHSPTALNGAPSPPNGFSNGPSSSSSSSLANQQLPPACGARQLSKLKRFLTTLQQFGNDISPEIGERVRTLVLGLVNSTLTIEEFHSKLQEATNFPLRPFVIPFLKANLPLLQRELLHCARLAKQNPAQYLAQHEQLLLDASTTSPVDSSELLLDVNENGKRRTPDRTKENGFDREPLHSEHPSKRPCTISPGQRYSPNNGLSYQPNGLPHPTPPPPQHYRLDDMAIAHHYRDSYRHPSHRDLRDRNRPMGLHGTRQEEMIDHRLTDREWAEEWKHLDHLLNCIMDMVEKTRRSLTVLRRCQEADREELNYWIRRYSDAEDLKKGGSSSSSHSRQQSPVNPDPVALDAHREFLHRPASGYVPEEIWKKAEEAVNEVKRQAMTELQKAVSEAERKAHDMITTERAKMERTVAEAKRQAAEDALAVINQQEDSSESCWNCGRKASETCSGCNTARYCGSFCQHKDWEKHHHICGQTLQAPQQGDTPAVSSSVTPSSGAGSPMDTPPAATPRSTTPGTPSTIETTPR
Turning to B1, the binding entry is “no binding”.
